This test has as its system L1210 leukemia ip in BDF1 mice, survival T/C. Description: NCI In Vivo Anticancer Drug Screen. Data for tumor model L1210 Leukemia (intraperitoneal) in B6D2F1 (BDF1) mice. Conditions: T/C endpoint: mean survival time, higher T/C = longer survival.
Setting [1] is: dose: 400.0 mg/kg/injection, schedule: Q04DX003 (ip), vehicle: Klucel (hydroxypropylcellulose) (HPC).
Setting [2] is: dose: 200.0 mg/kg/injection, schedule: Q01DX009 (ip), vehicle: Klucel (hydroxypropylcellulose) (HPC).
The mark [3] stands for this setting: dose: 25.0 mg/kg/injection, schedule: Q04DX003 (ip), vehicle: saline with Tween-80.
Setting [4] is: dose: 400.0 mg/kg/injection, schedule: Q01DX009 (ip), vehicle: Klucel (hydroxypropylcellulose) (HPC).
The mark [5] stands for this setting: dose: 400.0 mg/kg/injection, schedule: Q01DX001 (ip), vehicle: carboxymethylcellulose (CMC).
Where [6] appears, read: dose: 400.0 mg/kg/injection, schedule: Q04DX002 (ip), vehicle: Klucel (hydroxypropylcellulose) (HPC).
[7] abbreviates: dose: 400.0 mg/kg/injection, schedule: Q01DX001 (ip), vehicle: saline.
The mark [8] stands for this setting: dose: 50.0 mg/kg/injection, schedule: Q04DX003 (ip), vehicle: saline with Tween-80.
The mark [9] stands for this setting: dose: 100.0 mg/kg/injection, schedule: Q04DX003 (ip), vehicle: saline with Tween-80.
The mark [10] stands for this setting: dose: 200.0 mg/kg/injection, schedule: Q04DX003 (ip), vehicle: saline with Tween-80.
The mark [11] stands for this setting: dose: 400.0 mg/kg/injection, schedule: Q04DX003 (ip), vehicle: saline with Tween-80.

The list shows only some results of the screen, not a fair sample: it is rich in T/C values a quarter to a half above the control, in often repeated tests (any T/C) and in doses without a T/C. Other doses and runs of a compound stand elsewhere. T/C is the treated group as % of the vehicle group. Some entries give survivors of the animals treated and no T/C: the source holds a T/C of zero for them, seemingly a mark for toxic or unscored doses. Some survivor counts are full or nearly so, which does not show that the dose was tolerated: survival well below the control is almost never listed, so the zero probably covers shortened survival too. Counts of survivors are from the toxicity check (mostly the fifth day) where no day follows; animals may have died later. Schedules are NCI's codes, taken here to give the interval after Q, in days (D) or hours (H), and the number of doses after X. Where survival is the endpoint, the PubChem record calls one and a half times the control and up active, and a quarter to a half above the control has no call in these data; cut-offs in other NCI protocols can differ.

As to `CCOC(=O)/C(C#N)=C/P(=O)(OCC)OCC`, the survivor count by setting is: (dose: 100.0 mg/kg/injection, schedule: Q04DX003 (ip), vehicle: Klucel (hydroxypropylcellulose) (HPC)) 6 of 6; (dose: 200.0 mg/kg/injection, schedule: Q04DX003 (ip), vehicle: Klucel (hydroxypropylcellulose) (HPC)) 6 of 6; under setting [1], 6 of 6.
Take `CC(=O)OC1OC(CS[As](C)C)C(OC(C)=O)C(OC(C)=O)C1OC(C)=O` (centres undefined): under setting [1], the survivor count was 0 of 6.
Take `O=c1oc(-c2ccccc2)n[n+]([O-])c1-c1ccccc1`: the survivor count under setting [2] is 2 of 3.
As to `[Cl][Pt+2][Cl].[NH-]C1CCC1.[NH-]C1CCC1`, the T/C was 133 % of control (dose: 4.0 mg/kg/injection, schedule: Q01DX009 (ip), vehicle: saline with Tween-80); 133 % of control (dose: 8.0 mg/kg/injection, schedule: Q01DX001 (ip), vehicle: saline with Tween-80); 125 % of control (dose: 12.5 mg/kg/injection, schedule: Q04DX003 (ip), vehicle: saline with Tween-80); 130 % of control (dose: 16.0 mg/kg/injection, schedule: Q01DX001 (ip), vehicle: saline with Tween-80); 128 % of control (dose: 20.0 mg/kg/injection, schedule: Q04DX003 (ip), vehicle: saline); 140 % of control under setting [3]. Besides, the T/C (dose: 50.0 mg/kg/injection, schedule: Q04DX003 (ip), vehicle: Klucel (hydroxypropylcellulose) (HPC)) was 132 % of control. Also, the survivor count (dose: 128.0 mg/kg/injection, schedule: Q01DX001 (ip), vehicle: saline with Tween-80) is listed as 2 of 6.
Turning to `O=S(=O)(C(Cl)Cl)C(Cl)(Cl)S(=O)(=O)C(Cl)Cl`, the survivor count is recorded as 2 of 6 under setting [2] and 0 of 6 under setting [4].
Take `CCOC(=O)c1cc(-c2ccccc2)c(-c2ccccc2)c(-c2ccccc2)c1-c1ccccc1`: the survivor count under setting [5] is reported as 2 of 4.
`O=C(O)CC[n+]1c(/C=C/c2cc(Br)c(O)c(Br)c2)sc2ccccc21`: the survivor count (dose: 400.0 mg/kg/injection, schedule: Q04DX003 (ip), vehicle: saline sonified) is 3 of 6.
For the compound `O=C(Nc1ccc(Nc2ccccc2)cc1)Nc1cccc(C(F)(F)F)c1`, the survivor count (dose: 100.0 mg/kg/injection, schedule: Q04DX002 (ip), vehicle: gum acacia) is 3 of 3 and the survivor count (dose: 200.0 mg/kg/injection, schedule: Q04DX003 (ip), vehicle: gum acacia) is 3 of 3.
With `C[N+](C)(C)CCOC(=O)c1cccc(CBr)c1`, for the setting “dose: 400.0 mg/kg/injection, schedule: Q04DX003 (ip), vehicle: saline”, the survivor count was 0 of 6.
With `Cc1ccc(S(=O)(=O)NCCN(C2CCCCC2)S(=O)(=O)c2ccc(C)cc2)cc1`, the survivor count is 0 of 6 (dose: 60.0 mg/kg/injection, schedule: Q01DX001 (ip), vehicle: carboxymethylcellulose (CMC)); 1 of 6 (dose: 75.0 mg/kg/injection, schedule: Q01DX001 (ip), vehicle: carboxymethylcellulose (CMC)); 1 of 6 (dose: 150.0 mg/kg/injection, schedule: Q01DX001 (ip), vehicle: carboxymethylcellulose (CMC)); 0 of 6 (dose: 300.0 mg/kg/injection, schedule: Q01DX001 (ip), vehicle: carboxymethylcellulose (CMC)).
As to `COc1ccccc1NC(=O)NCCN1CCOCC1`, the survivor count under setting [4] is reported as 3 of 6.
With `CCCCCCCCCCCCCCC(F)C(=O)OC` (centres undefined), the survivor count by setting is: (dose: 200.0 mg/kg/injection, schedule: Q01DX009 (sc), vehicle: olive oil, sesame oil, peanut oil) 4 of 6; (dose: 400.0 mg/kg/injection, schedule: Q01DX009 (sc), vehicle: olive oil, sesame oil, peanut oil) 6 of 6.
For `N#CCOc1cc(Cl)c(Cl)cc1Cl`, under setting [6], the survivor count is given as 3 of 3.
Turning to `COCCOC(=O)c1ccc(C(N)=NC2CCCCC2)cc1`, the survivor count under setting [7] is given as 6 of 6.
Take `N#CSCN1C(=O)C2CC=CCC2C1=O` (centres undefined): the survivor count was 2 of 6 under setting [8] and 0 of 6 under setting [9].
For the compound `O=C(O)c1ccc([N+](=O)[O-])cc1O`, under setting [5], the survivor count is recorded as 4 of 4.
Turning to `OC1CCCC2CCC[N-]C12.OC1CCCC2CCC[N-]C12.[O]=[V][OH]` (centres undefined), the survivor count reads like this: (dose: 80.0 mg/kg/injection, schedule: Q01DX015 (ip), vehicle: carboxymethylcellulose (CMC)) 5 of 6; (dose: 100.0 mg/kg/injection, schedule: Q01DX001 (ip), vehicle: saline) 2 of 6; (dose: 120.0 mg/kg/injection, schedule: Q01DX015 (ip), vehicle: carboxymethylcellulose (CMC)) 0 of 6; (dose: 200.0 mg/kg/injection, schedule: Q01DX001 (ip), vehicle: saline) 1 of 6; under setting [7], 0 of 6.
Consider `Cc1ccc[n+](CCc2c[nH]c3ccccc23)c1`, for which the survivor count under setting [10] is listed as 0 of 6 and the survivor count under setting [11] is listed as 0 of 6.
For the compound `Cc1c2c(cc3c1OCN(C1CCCCC1)C3)CN(C1CCCCC1)CO2`, the survivor count under setting [7] was 3 of 6.
On to `COc1ccc(C)cc1NC(=S)NC(=O)C(C)Oc1ccccc1` (centres undefined), for which the survivor count under setting [2] is recorded as 5 of 6 and the survivor count under setting [4] is 6 of 6.
On to `Cc1cccc(CN=C(N)CCl)n1`, for which the survivor count under setting [6] is 0 of 3.
As for `O=C(O)C(O)C(O)C(O)CO.[Zn+2]` (centres undefined), the survivor count is 6 of 6 under setting [9], 1 of 6 under setting [10] and 0 of 6 under setting [11].
As for `COc1ccc(/C=N/n2c3ccccc3c3ccccc32)cc1OCCCN(C)C`, the survivor count (dose: 12.5 mg/kg/injection, schedule: Q01DX009 (ip), vehicle: saline) is 6 of 6; the survivor count (dose: 25.0 mg/kg/injection, schedule: Q01DX009 (ip), vehicle: saline) was 6 of 6; the survivor count (dose: 50.0 mg/kg/injection, schedule: Q01DX009 (ip), vehicle: saline) is on record as 0 of 6; the survivor count (dose: 100.0 mg/kg/injection, schedule: Q04DX003 (ip), vehicle: alcohol) is reported as 2 of 4; the survivor count (dose: 200.0 mg/kg/injection, schedule: Q04DX003 (ip), vehicle: alcohol) is recorded as 0 of 4; the survivor count (dose: 400.0 mg/kg/injection, schedule: Q04DX003 (ip), vehicle: alcohol) is on record as 0 of 4.
As for `CCCCCCCCCC[n+]1cccc(C#N)c1`, the survivor count reads like this: (dose: 75.0 mg/kg/injection, schedule: Q01DX001 (ip), vehicle: saline) 3 of 6; (dose: 150.0 mg/kg/injection, schedule: Q01DX001 (ip), vehicle: saline) 1 of 6; (dose: 300.0 mg/kg/injection, schedule: Q01DX001 (ip), vehicle: saline) 0 of 6.
On to `CC[S][Hg][Cl]`, for which the survivor count runs as follows: (dose: 12.0 mg/kg/injection, schedule: Q01DX009 (ip), vehicle: saline with Tween-80) 4 of 6; under setting [3], 1 of 6; under setting [8], 0 of 6; under setting [9], 0 of 6; under setting [10], 0 of 6; under setting [11], 0 of 6.
In the case of `O=C(O)c1cccc(F)n1`, the survivor count under setting [11] is recorded as 1 of 6.
Regarding `C/C=C/C[P+](c1ccccc1)(c1ccccc1)c1cccc2ccccc12`, the survivor count is listed as 3 of 3 (dose: 50.0 mg/kg/injection, schedule: Q04DX002 (ip), vehicle: saline with Tween-80) and 0 of 3 (dose: 100.0 mg/kg/injection, schedule: Q04DX002 (ip), vehicle: saline with Tween-80).
Consider `CCOP(=S)(OCC)SC(C)(C)C`, for which the survivor count by setting is: under setting [10], 5 of 6; under setting [11], 0 of 6.
`CN(C)/C=N\c1ncnc2c1c(C#N)cn2C1OC(CO)C(O)C1O` (centres undefined): the survivor count is, setting by setting: (dose: 50.0 mg/kg/injection, schedule: Q01DX005 (ip), vehicle: saline) 6 of 6; (dose: 100.0 mg/kg/injection, schedule: Q01DX005 (ip), vehicle: saline) 0 of 6; (dose: 200.0 mg/kg/injection, schedule: Q01DX005 (ip), vehicle: saline) 0 of 6.

The values above are taken from PubChem BioAssay AID248 (DTP/NCI, 2004).
